Reference: article PMC3071809, “Recombinant Complement Receptor 2 Radiolabeled with [^99mTc(CO)3]^+ : A Potential New Radiopharmaceutical for Imaging Activated Complement” (PLoS ONE, 2011)
Results are given in words; binding and its absence hold for the method and conditions named. Some binding calls cover weakened binding; strength is not graded here.

Amino acid sequences for entries named in this document (tags omitted). Residues count along the entry.
UniProt P01024, residues 1002-1303: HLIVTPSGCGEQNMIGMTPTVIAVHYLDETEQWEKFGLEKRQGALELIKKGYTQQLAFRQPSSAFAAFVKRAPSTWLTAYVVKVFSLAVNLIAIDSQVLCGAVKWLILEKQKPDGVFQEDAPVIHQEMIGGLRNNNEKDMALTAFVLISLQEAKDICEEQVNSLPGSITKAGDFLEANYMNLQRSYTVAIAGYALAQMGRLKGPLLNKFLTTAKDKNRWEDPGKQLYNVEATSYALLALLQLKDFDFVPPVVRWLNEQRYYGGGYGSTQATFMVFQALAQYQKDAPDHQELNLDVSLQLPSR

Key:
[1] = molecular target: recombinant Complement Receptor 2 (rCR2), Short Consensus Repeats 1 and 2 of human CR2 with the C-terminal sequence … (human) (UniProt P20023); assay: SEC; preparative Sephacryl 100 column, PBS pH 7.4 and 0.5 M NaCl, 1 mL/min; both purified
[2] = molecular target: human C3d deposited on sensitized sheep red blood cells (human C3d+ RBC) (human (from human C6 deficient serum)) (UniProt P01024); assay: flow cytometry on cells; 1.5 µM rCR2, C2A or K41E CR2 with 2.5×10^7 human C3d+ sheep RBC in PBS and 2 mM EDTA, 60 min; anti-HIS-FITC; only the binder purified
[3] = molecular target: human C3d deposited on sensitized sheep red blood cells (human C3d+ RBC) (human (from human C6 deficient serum)) (UniProt P01024); assay: condition: only after pre-incubation with 10 µg/mL anti-human C3d; flow cytometry on cells; as a5, but C3d+ RBC pre-incubated with 10 µg/mL anti-human C3d before rCR2 and anti-HIS-FITC; only the binder purified
[4] = molecular target: human C3d deposited on sensitized sheep red blood cells (human C3d+ RBC) (human (from human C6 deficient serum)) (UniProt P01024); assay: radioligand binding; as a8, but C3d+ RBC incubated with 10 µg/mL anti-human C3d followed by ^99mTc-rCR2; only the binder purified
[5] = molecular target: human C3d deposited on sensitized sheep red blood cells (human C3d+ RBC) (human (from human C6 deficient serum)) (UniProt P01024); assay: radioligand binding; ^99mTc-labeled proteins with 2.5×10^7 human C3d+ sheep RBC; washed five times with PBS; cell pellet gamma counted, percent of total radioactivity; only the binder purified

binding [1] | Binder | binding [2] | binding [3] | binding [4] | binding [5]
no binding | recombinant Complement Receptor 2 (rCR2), Short Consensus Repeats 1 and 2 of human CR2 with the C-terminal sequence … (domain or fragment, UniProt P20023 21-154, looked up, complement receptor type 2 (CR2, CD21), human, residues 21-154: SCR1, SCR2 and the SCR2 to SCR3 linker VFPLEC; 15.5 kDa; cloned in pET-24a (NdeI/EcoRI); also called recombinant CR2; SCR1/2 fragment; not shown: His6, C-terminal, kept) ISCGSPPPILNGRISYYSTPIAVGTVIRYSCSGTFRLIGEKSLLCITKDKVDGTWDKPAPKCEYFNKYSSCPEPIVPGGYKIRGSTPYRHGDSVTFACKTNFSMNGNKSVWCQANNMWGPTRLPTCVSVFPLEC | binds | no binding | – | –
– | ^99mTc-rCR2 (rCR2 radiolabeled with [^99mTc(CO)3]^+ on the His-tag) (domain or fragment, human, UniProt P20023 21-154, looked up, [^99mTc(CO)3]^+ on the C-terminal His-tag, complement receptor type 2 (CR2), human, residues 21-154, as m1; m1 with the radiolabel; also called rCR2-Tc^99m; rCR2-[^99mTc(CO)3]; source: labeled with [^99mTc(CO)3(OH2)3]^+ at 37°C; not shown: His6, C-terminal, kept) ISCGSPPPILNGRISYYSTPIAVGTVIRYSCSGTFRLIGEKSLLCITKDKVDGTWDKPAPKCEYFNKYSSCPEPIVPGGYKIRGSTPYRHGDSVTFACKTNFSMNGNKSVWCQANNMWGPTRLPTCVSVFPLEC | – | – | no binding (condition: with 10 µg/mL anti-human C3d) | binds
